In publication PMC12040169 (PLOS Biology, 2025):
This is one part of the list.

Tested on: T1, CTL2-GFP (C. trachomatis L2/434/Bu, GFP-expressing)
T1 construct: L2/434/Bu, GFP-expressing
Set-up: species or system HeLa; Intracellular C. trachomatis growth in HeLa cells, bulk GFP fluorescence relative to DMSO
Details: bulk GFP, single well; 28.5 h, 10 µM; inhibitor

In order of rising “% of control remaining” value:
1. Oc1ccccc1Nc1nc(NC2CCCC2)c2ccccc2n1 [CBK268402C]  47.1199%
2. Cc1noc2nc(-c3ccco3)cc(C(=O)NCc3nc4ccccc4[nH]3)c12 [CBK295608]  59.5648%
3. CCCCOC(=O)c1ccc(NC(=O)NCCc2cccs2)cc1 [CBK043381]  80.6454%
4. COc1ccc(CCN(Cc2cccnc2)CC(O)COc2cccc3c2CCCC3)cc1 (centres unmarked) [CBK024545T]  81.9367%
5. CCc1nnc(NS(C)(=O)=O)s1 [CBK062197]  84.8107%
6. CC(C)n1cc(C(=O)N2CCCC2c2nc3ccccc3[nH]2)cn1 (centres unmarked) [CBK284667]  89.4223%
7. COc1cc(-c2cncc(N(CCO)CCO)n2)cc(OC)c1OC [CBK065544]  96.4654%
8. CC(C)c1ccc(S(=O)(=O)NCc2csc3ccccc23)cc1 [CBK044662]  96.6367%
9. Cc1cc(CNC(=O)C(C)Cn2cccn2)on1 (centres unmarked) [CBK281486]  97.6298%
10. CCOC(=O)N1CCN(S(=O)(=O)c2ccc3[nH]c(=O)oc3c2)CC1 [CBK304679]  98.2299%
11. O=c1c2c(nc(NCCO)n1-c1ccccc1)-c1ccccc1CC21CCCCC1 [CBK262589]  99.8634%
12. C[C@@H]1CNCCN1c1nccnc1OCCOc1cccnc1OCCN [CBK040757T]  100%
13. O=C(c1ccco1)N1CCN(c2ccc(-c3ccc(F)c(Cl)c3)cn2)CC1 [CBK037683]  105.159%
14. c1csc(C2CN(c3nccn4cnnc34)CCO2)c1 (centres unmarked) [CBK306380]  109.607%
15. CN(C)CCN1C(=O)C(O)=C(C(=O)c2cccs2)C1c1ccc([N+](=O)[O-])cc1 (centres unmarked) [CBK264584]  109.957%
16. CCCC(=O)N1CCC(c2cc3n(n2)[C@@H](C(F)(F)F)C[C@@H](C)N3)C1 (some centres unmarked) [CBK282237]  111.833%
17. CCN(CC(=O)NCc1ccc(F)cc1)S(=O)(=O)c1ccc(Cl)s1 [CBK305837]  112.054%
18. CCNC(=O)Nc1ccc(-c2ccc3c(c2)OCCCO3)c2ccccc12 [CBK083726]  114.206%
19. COc1cc(/C=C2\SC(=N)NC2=O)ccc1OCC(=O)O [CBK262675]  114.268%
20. CC(C)[C@H]1SC(NC[C@H](C)c2ccccc2)=NC1=O [CBK074034]  114.504%
21. O=C(Nc1nc2ccccc2[nH]1)C1c2ccccc2Oc2ccccc21 [CBK265454]  116.311%
22. CCc1nn(CC(=O)NC(C)(C)C)c(=O)c2cc3sccc3n12 [CBK284056]  117.524%
23. O=C(CSc1ccccc1)Nc1cccc(Oc2ccc3c(c2)C(=O)NC3=O)c1 [CBK266500]  118.346%
24. CC(C)c1cc2c(s1)NC(c1ccccc1)NC2=O (centres unmarked) [CBK288209]  118.403%
25. O=C(O)c1cc(NC(=O)c2ccco2)cc(C(=O)O)c1 [CBK263360]  119.04%
26. O=c1[nH]nc(-c2cccs2)n1-c1cccnc1 [CBK283854]  119.232%
27. CN(C)CCNC(=O)c1ccc(-c2cnc(OCC3CCN(C(=O)OC(C)(C)C)CC3)nc2)cc1 [CBK167544]  119.291%
28. CC(Cc1nc(C2CC2)cs1)n1cc(Cl)cn1 (centres unmarked) [CBK304707]  123.937%
29. C=CCn1nnc(NC(=O)COc2ccccc2)n1 [CBK288131]  125.185%
30. COc1ccc(-c2c(C(F)(F)F)oc3c(CN4CC(C)OC(C)C4)c(O)ccc3c2=O)cc1OC (centres unmarked) [CBK217829]  126.153%
31. CN(C)CCN1C(=O)C2C3c4ccccc4C([N+](=O)[O-])(c4ccccc43)C2C1=O (centres unmarked) [CBK269286]  127.22%
32. Cc1cccc(C2(O)CCN(C(=O)c3cc(C(C)C)nn3C)CC2)c1 [CBK282163]  129.35%
33. CC(=O)Nc1nc(-c2cccs2)c(-c2cc(C)no2)s1 [CBK284493]  131.137%
34. CC(C)C(NC(=O)c1ccc(CS(C)(=O)=O)cc1)c1ccc(C(C)(C)C)cc1 (centres unmarked) [CBK296705]  131.586%
35. Nc1ncnc(N(c2ccccc2)c2ccccc2)n1 [CBK288139]  132.798%
36. COc1cc(C(=O)N2CCC3(CC2)CC(=O)c2cc(-c4ccc(N(C)C)cc4)ccc2O3)cc(OC)c1C [CBK170663]  133.31%
37. O=C(O)CCSCC(=O)c1ccc(OC(F)F)cc1 [CBK286991]  133.633%
38. O=C(COc1ccc(S(=O)(=O)N2CCCCC2)cc1)NCc1ccccn1 [CBK268517]  134.405%
39. COc1cccc(CN2CCCC(NC(=O)NCc3cccs3)C2)c1 (centres unmarked) [CBK307357]  135.491%
40. Cc1c(CN2CCC(N(C)CCN(C)C)CC2)oc2ccccc12 [CBK282038]  135.931%
41. Cn1ccnc1CN1C[C@@H]2CN(C(=O)C3CCCC3)C[C@]2(C(=O)O)C1 [CBK307201]  146.707%
42. NS(=O)(=O)c1ccc(NC(=O)CCSc2ccc(Cl)cc2)cc1 [CBK269322]  149.045%
43. Cn1c(=O)c2c(nc(CN3CCN(C(=O)c4ccco4)CC3)n2CCc2ccccc2)n(C)c1=O [CBK269278]  149.629%
44. COCCCn1c(=O)[nH]c2ncc(-c3cccnc3)nc21 [CBK064929]  151.29%
45. CC(Oc1ccc2c(c1)OCO2)C(=O)NNC(=O)Nc1cccc(C(F)(F)F)c1 (centres unmarked) [CBK266922]  151.709%
46. CCOC(=O)N1CCC(NS(=O)(=O)c2cc(Cl)sc2Cl)CC1 [CBK045462]  154.895%
47. Nc1ncc(-c2ccc(Cl)cc2)nc1-c1ccc(CCC(=O)O)cc1 [CBK064063]  159.023%
48. CN(C)CCN(C)c1cccc(-c2ccc(CCC(=O)O)cc2)n1 [CBK036983]  174.382%
49. O=C(Nc1ccc(N2CCN(Cc3ccccc3F)CC2)cc1)c1cccnc1 [CBK267250]  175.985%
50. OCc1ccccc1-c1cc(N2CCN(Cc3cccnc3)CC2)n2nccc2n1 [CBK037105]  223.454%
